{
  "sequences": {"note": "Amino acid sequences for entries named in this document (tags omitted).", "UniProt P61006": "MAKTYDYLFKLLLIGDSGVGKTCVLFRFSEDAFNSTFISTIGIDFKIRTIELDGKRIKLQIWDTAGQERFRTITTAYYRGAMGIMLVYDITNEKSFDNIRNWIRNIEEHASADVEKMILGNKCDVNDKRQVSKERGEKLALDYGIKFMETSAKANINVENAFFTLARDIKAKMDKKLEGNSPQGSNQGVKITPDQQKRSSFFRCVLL", "UniProt P08151": "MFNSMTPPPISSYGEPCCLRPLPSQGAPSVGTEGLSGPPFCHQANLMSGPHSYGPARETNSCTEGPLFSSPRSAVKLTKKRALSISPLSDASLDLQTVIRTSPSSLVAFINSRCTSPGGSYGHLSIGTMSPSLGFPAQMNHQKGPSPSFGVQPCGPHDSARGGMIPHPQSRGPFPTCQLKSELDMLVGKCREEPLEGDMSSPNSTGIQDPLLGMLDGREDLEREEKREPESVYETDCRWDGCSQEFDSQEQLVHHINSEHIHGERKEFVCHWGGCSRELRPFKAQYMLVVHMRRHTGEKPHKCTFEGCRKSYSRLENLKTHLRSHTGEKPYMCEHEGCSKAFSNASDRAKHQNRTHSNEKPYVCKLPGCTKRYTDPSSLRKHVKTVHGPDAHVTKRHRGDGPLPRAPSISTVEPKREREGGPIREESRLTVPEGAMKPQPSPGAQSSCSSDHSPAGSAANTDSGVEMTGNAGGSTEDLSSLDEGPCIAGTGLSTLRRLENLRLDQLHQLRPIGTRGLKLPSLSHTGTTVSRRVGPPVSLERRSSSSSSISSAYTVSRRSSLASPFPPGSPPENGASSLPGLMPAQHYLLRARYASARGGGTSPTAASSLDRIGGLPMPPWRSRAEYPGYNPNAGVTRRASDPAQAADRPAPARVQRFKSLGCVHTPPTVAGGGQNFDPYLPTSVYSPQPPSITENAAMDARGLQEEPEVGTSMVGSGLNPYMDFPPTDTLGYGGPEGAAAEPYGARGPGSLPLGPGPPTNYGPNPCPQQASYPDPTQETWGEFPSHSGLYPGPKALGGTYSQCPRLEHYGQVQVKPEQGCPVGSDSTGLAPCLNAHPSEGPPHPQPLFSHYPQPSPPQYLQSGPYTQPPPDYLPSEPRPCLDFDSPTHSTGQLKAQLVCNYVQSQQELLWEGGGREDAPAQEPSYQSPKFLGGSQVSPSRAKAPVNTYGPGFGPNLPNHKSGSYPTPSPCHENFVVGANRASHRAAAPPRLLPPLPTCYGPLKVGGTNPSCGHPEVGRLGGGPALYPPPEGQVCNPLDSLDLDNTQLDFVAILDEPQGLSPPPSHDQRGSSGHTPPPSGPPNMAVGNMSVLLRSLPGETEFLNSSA"},
  "source": "paper PMC11761205",
  "molecules": {"B1": {"name": "G protein-coupled receptor 137 (receptor, UniProt Q96N19 1-417)", "chain": "MESNLSGLVPAAGLVPALPPAVTLGLTAAYTTLYALLFFSVYAQLWLVLLYGHKRLSYQTVFLALCLLWAALRTTLFSFYFRDTPRANRLGPLPFWLLYCCPVCLQFFTLTLMNLYFAQVVFKAKVKRRPEMSRGLLAVRGAFVGASLLFLLVNVLCAVLSHRRRAQPWALLLVRVLVSDSLFVICALSLAACLCLVARRAPSTSIYLEAKGTSVCQAAAMGGAMVLLYASRACYNLTALALAPQSRLDTFDYDWYNVSDQADLVNDLGNKGYLVFGLILFVWELLPTTLLVGFFRVHRPPQDLSTSHILNGQVFASRSYFFDRAGHCEDEGCSWEHSRGESTRCQDQAATTTVSTPPHRRDPPPSPTEYPGPSPPHPRPLCQVCLPLLAQDPGGRGYPLLWPAPCCSCHSELVPSP"}},
  "key": {"[1]": {"target": "T1, Suppressor of Fused (human (endogenous in SK-OV-3 and HO8910)) (UniProt Q9UMX1)", "T1 sequence": "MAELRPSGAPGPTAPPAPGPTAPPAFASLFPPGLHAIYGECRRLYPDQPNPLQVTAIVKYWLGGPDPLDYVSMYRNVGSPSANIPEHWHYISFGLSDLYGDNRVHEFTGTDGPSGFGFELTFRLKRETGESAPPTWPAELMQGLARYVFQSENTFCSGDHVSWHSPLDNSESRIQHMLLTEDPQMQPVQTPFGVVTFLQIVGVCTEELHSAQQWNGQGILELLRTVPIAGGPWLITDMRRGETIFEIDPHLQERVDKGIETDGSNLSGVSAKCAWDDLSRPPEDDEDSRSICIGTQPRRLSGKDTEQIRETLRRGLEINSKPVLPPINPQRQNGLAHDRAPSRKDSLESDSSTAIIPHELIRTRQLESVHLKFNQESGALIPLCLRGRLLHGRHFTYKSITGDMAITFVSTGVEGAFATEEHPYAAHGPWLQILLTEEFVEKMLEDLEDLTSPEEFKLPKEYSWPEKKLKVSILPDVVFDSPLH", "experiment": "co-IP; endogenous proteins; IP: SuFu, WB: GLI1; SK-OV-3 cells with RAB8A shRNA or scrambled shRNA, HO8910 cells with ectopic Flag-RAB8A or empty vector; IgG as negative control; IP lysis buffer 100 mM NaCl, 50 mM Tris-HCl pH 8.0, 5 mM EDTA, 1% Brij35"}, "[2]": {"target": "T2, G protein-coupled receptor 137 (human (endogenous in SK-OV-3 and A2780)) (UniProt Q96N19)", "T2 sequence": "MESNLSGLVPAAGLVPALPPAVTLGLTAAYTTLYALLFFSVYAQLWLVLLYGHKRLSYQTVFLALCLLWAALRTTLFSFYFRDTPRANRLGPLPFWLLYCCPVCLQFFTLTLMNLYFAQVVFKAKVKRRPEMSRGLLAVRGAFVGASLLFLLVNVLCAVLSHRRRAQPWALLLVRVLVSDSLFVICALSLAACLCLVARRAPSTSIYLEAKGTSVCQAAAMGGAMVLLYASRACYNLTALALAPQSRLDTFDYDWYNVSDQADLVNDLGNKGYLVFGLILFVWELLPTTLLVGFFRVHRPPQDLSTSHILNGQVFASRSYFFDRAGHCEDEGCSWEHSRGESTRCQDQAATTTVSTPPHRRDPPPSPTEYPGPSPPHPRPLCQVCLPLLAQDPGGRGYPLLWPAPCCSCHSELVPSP", "experiment": "co-IP; endogenous proteins in SK-OV-3 and A2780 cells; IP: RAB8A, WB: GPR137, and reciprocal IP: GPR137, WB: RAB8A (SK-OV-3); IgG as negative control; IP lysis buffer 100 mM NaCl, 50 mM Tris-HCl pH 8.0, 5 mM EDTA, 1% Brij35"}, "[3]": {"target": "Ras-related protein Rab-8A (human (endogenous in SK-OV-3 and A2780)) (UniProt P61006)", "experiment": "co-IP; endogenous proteins in SK-OV-3 and A2780 cells; IP: RAB8A, WB: GPR137, and reciprocal IP: GPR137, WB: RAB8A (SK-OV-3); IgG as negative control; IP lysis buffer 100 mM NaCl, 50 mM Tris-HCl pH 8.0, 5 mM EDTA, 1% Brij35"}, "[4]": {"target": "Ras-related protein Rab-8A (human (endogenous in SK-OV-3 and A2780)) (UniProt P61006)", "experiment": "co-IP; endogenous proteins in the separated membrane fraction of SK-OV-3 and A2780 cells; IP: RAB8A, WB: GPR137; IgG as negative control, EZRIN as loading control"}},
  "note": "No constants are given. Whether binding was seen depends on the method and setting. Binding seen in cells or lysates may run through a third protein. Some binding calls cover weakened binding; strength is not graded here. For some of these results: Where a sequence is shown, tags or fusion partners need not be part of it.",
  "data": [
    {"molecule": "GLI1 (from UniProt P08151 1-1106)", "values": [
      {"measurement": "binding", "setting": "[1]", "result": "binds"}
    ]},
    {"molecule": "Ras-related protein Rab-8A (from UniProt P61006 1-207)", "values": [
      {"measurement": "binding", "setting": "[2]", "result": "no binding"}
    ]},
    {"molecule": "B1", "values": [
      {"measurement": "binding", "setting": "[3]", "result": "no binding"},
      {"measurement": "binding", "setting": "[4]", "result": "no binding"}
    ]}
  ]
}
